No constants are given. Whether binding was seen depends on the method and setting. Binding seen in cells or lysates may run through a third protein. A yes stands for co-enrichment or nearness to the bait. Other partners may have been found. Tags and fused reporters may be left off the sequences shown.
Each substance was assayed against T1, Human CALHM2 Myc-DDK-tagged (human) (UniProt Q9HA72) (assay: affinity purification with mass spectrometry; mitochondria from HEK 293T cells overexpressing CALHM2-Myc-DDK, solubilised with 1 mM N-dodecyl maltoside; anti-FLAG M2 affinity gel, elution with Myc-peptide, eluate analysed by LC-MS; another Myc-DDK-tagged protein (ATP synthase c-subunit) as negative control).
T1 sequence: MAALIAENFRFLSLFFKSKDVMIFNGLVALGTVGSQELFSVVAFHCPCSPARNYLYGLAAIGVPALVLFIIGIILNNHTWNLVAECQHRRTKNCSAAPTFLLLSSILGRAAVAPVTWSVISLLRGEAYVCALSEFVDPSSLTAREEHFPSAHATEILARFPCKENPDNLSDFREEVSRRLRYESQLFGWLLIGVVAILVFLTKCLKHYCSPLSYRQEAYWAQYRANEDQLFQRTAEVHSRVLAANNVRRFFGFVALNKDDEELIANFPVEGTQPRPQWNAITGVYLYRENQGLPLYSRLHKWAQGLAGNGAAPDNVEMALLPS

Chains of the proteins cited; added tags and fusions are not shown. Residues count along the entry.
UniProt P40939, residues 37-763: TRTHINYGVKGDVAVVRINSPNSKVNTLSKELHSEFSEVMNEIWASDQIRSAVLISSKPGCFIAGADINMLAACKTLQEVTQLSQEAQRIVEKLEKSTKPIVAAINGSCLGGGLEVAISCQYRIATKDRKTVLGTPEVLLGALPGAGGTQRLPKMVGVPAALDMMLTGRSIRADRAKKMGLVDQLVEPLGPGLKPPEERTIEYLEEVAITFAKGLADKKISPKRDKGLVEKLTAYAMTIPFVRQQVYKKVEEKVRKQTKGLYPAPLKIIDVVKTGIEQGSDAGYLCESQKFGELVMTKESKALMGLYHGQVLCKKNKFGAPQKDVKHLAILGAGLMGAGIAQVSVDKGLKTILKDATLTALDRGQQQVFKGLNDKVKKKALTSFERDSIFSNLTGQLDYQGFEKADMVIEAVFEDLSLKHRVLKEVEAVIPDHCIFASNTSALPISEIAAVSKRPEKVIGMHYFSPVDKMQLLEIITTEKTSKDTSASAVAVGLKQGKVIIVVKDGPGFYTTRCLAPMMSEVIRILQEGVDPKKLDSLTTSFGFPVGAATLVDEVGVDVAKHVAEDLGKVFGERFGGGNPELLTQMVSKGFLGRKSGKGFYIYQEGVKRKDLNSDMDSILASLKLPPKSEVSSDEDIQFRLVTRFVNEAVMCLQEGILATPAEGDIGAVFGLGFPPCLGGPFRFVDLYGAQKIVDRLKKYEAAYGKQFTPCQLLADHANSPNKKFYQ

binding, binds:
ECHA, alpha subunit of the mitochondrial trifunctional protein (mTFP) (from UniProt P40939 37-763)
HSP90 (human (endogenous in HEK 293T))
HSP70 (human (endogenous in HEK 293T))
